# Experimental data from PubChem BioAssay AID2685 (National Center for Advancing Translational Sciences (NCATS), 2010).
# The list shows a part of the results. Further columns of the screen follow, without active or inactive calls. Most of these compounds were active or inconclusive in the main read-out, so they are no random draw. The note in brackets gives the kind of curve behind each potency; many fits are weak.
# Experiment: qHTS Assay for Lipid Storage Modulators in Drosophila S3 Cells;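 for cell number change: cells counted by Cell Tracker Red CMTPX staining in the red channel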
# Conditions: BODIPY lipid droplet fluorescence, 18-24 h; for cell number change: measured here: cell count max response, cells fed with added oleic acid
# Method in brief: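 Drosophila S3 cells loaded with oleic acid (400 uM, as added) and compounds at several concentrations; lipid droplets imaged by 488-nm laser-scanning cytometry, 500–530 nm intensity and object ratio to cell channel. Percent activity normalized to 20 uM Triacsin C.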
# [1] = measured here: cell number channel AC50, cells fed with added oleic acid
# [2] = measured here: lipid fluorescence (Fed channel) AC50, cells fed with added oleic acid
Structure (SMILES),cell number change [%],AC50 [1],AC50 [2]
CCOc1ccccc1C(=O)NC(C)c1ccc2c(c1)OCO2 (stereo unspecified),49.2,"1.3 µM [rising, full curve, poor fit]","1.16 µM [rising, full curve]"
Cc1cccc(NC(=O)c2ccc(Cl)c(S(=O)(=O)N3CCCCC3)c2)n1,–,–,"5.8 µM [rising, single point]"
Cc1ccc(C(=O)NCC(=O)N(C)Cc2ccc(Cl)cc2Cl)s1,11.6,–,"4.11 µM [rising, single point]"
O=C(N/N=C/c1c(O)n(-c2ccccc2Cl)c(=O)c2ccccc12)C1COc2ccccc2O1 (stereo unspecified),2.1,–,"29.1 µM [falling, single point]"
CN(C)S(=O)(=O)c1ccc2c(c1)nc(CCC(=O)Nc1ccc3c(c1)OCO3)n2C,-9.78,"0.82 µM [falling, full curve, poor fit]","0.164 µM [rising, partial curve, poor fit]"
COc1ccccc1CCNC(=O)c1cc(COc2cccc(C(F)(F)F)c2)on1,-6.84,–,–
CC(C)CN(C(=O)CSc1nncn1C)C1CCS(=O)(=O)C1 (stereo unspecified),-7.37,–,"32.6 µM [rising, partial curve, poor fit]"
COc1ccc(Nc2nc(N3CCN(C)CC3)nc3ccccc23)c(OC)c1,21.3,–,–
NC(N)=NS(=O)(=O)c1ccc(NC(=S)NC(=O)/C=C/c2ccco2)cc1,-17.3,–,"0.146 µM [falling, full curve, poor fit]"
CCOc1cc(S(=O)(=O)NCc2ccncc2)ccc1Cl,-38.1,"3.16 µM [falling, full curve]","2.24 µM [falling, partial curve, poor fit]"
COc1ccc(S(=O)(=O)N2CCC(C(=O)N3CCN(C)CC3)CC2)cc1Cl,–,–,"0.259 µM [rising, partial curve, poor fit]"
CN(CCc1cnn(C)c1)Cc1nc(Cc2ccccc2)no1,13.8,–,"25.9 µM [rising, single point]"
CCC(C)NC(=O)c1ccccc1NC(=O)/C(=C/c1ccc(OC)cc1)c1ccccc1 (stereo unspecified),-2.55,–,"18.4 µM [falling, single point]"
CCOC(=O)Cn1c(=O)oc2cc(S(=O)(=O)NCc3cccs3)ccc21,-5.51,–,"29.1 µM [falling, single point]"
COc1ccc(NC(=O)CSc2nc3ccc(Nc4nc(N5CCOCC5)nc(N5CCOCC5)n4)cc3s2)cc1,194,"25.9 µM [rising, single point]",–
Cc1ccccc1C(=O)NC(=S)Nc1ccccc1[N+](=O)[O-],55.8,–,"0.112 µM [falling, full curve, poor fit]"

# Exported with tabs: entries from further up.
Structure (SMILES)	cell number change [%]	AC50 [1]	AC50 [2]
CC(C)CN(C(=O)CSc1nncn1C)C1CCS(=O)(=O)C1 (stereo unspecified)	-7.37	–	32.6 µM [rising, partial curve, poor fit]
CN(CCc1cnn(C)c1)Cc1nc(Cc2ccccc2)no1	13.8	–	25.9 µM [rising, single point]
